Reference: article PMC7035285
These are yes or no findings as the source states them, for the method shown. In cells and extracts the contact can be indirect. Some entries that bind do so weakly or less than the wild type.

Chains of the proteins cited; added tags and fusions are not shown.
UniProt P23804: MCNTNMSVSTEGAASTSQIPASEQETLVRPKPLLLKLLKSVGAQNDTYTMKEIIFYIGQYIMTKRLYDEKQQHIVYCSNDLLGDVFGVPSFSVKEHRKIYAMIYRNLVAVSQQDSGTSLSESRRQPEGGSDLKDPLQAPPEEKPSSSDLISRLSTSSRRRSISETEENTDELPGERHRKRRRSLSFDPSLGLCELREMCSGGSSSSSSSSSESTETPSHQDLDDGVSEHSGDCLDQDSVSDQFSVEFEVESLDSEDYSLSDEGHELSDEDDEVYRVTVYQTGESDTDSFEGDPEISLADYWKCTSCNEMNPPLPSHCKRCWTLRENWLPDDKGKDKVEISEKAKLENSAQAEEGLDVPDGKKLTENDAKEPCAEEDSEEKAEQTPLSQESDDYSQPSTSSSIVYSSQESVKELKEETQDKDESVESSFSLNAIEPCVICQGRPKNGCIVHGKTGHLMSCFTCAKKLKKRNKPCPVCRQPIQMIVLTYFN

Target: MDM2 (mouse (endogenous in MEF)) (UniProt P23804)
Assay: co-IP; anti-MDM2 immunoprecipitation from NP-40 lysates of Men1^f/f and Men1^Δ/Δ MEF cells, protein A/G beads, 4 °C, western blotting; IgG as negative control

B1: MDMX (protein, UniProt O35618 1-489)
chain: MTSHSTSAQCSASDSACRISSEQISQVRPKLQLLKILHAAGAQGEVFTMKEVMHYLGQYIMVKQLYDQQEQHMVYCGGDLLGDLLGCQSFSVKDPSPLYDMLRKNLVTSASINTDAAQTLALAQDHTMDFPSQDRLKHGATEYSNPRKRTEEEDTHTLPTSRHKCRDSRADEDLIEHLSQDETSRLDLDFEEWDVAGLPWWFLGNLRNNCIPKSNGSTDLQTNQDIGTAIVSDTTDDLWFLNETVSEQLGVGIKVEAANSEQTSEVGKTSNKKTVEVGKDDDLEDSRSLSDDTDVELTSEDEWQCTECKKFNSPSKRYCFRCWALRKDWYSDCSKLTHSLSTSNITAIPEKKDNEGIDVPDCRRTISAPVVRPKDGYLKEEKPRFDPCNSVGFLDLAHSSESQEIISSAREQTDIFSEQKAETESMEDFQNVLKPCSLCEKRPRDGNIIHGKTSHLTTCFHCARRLKKSGASCPACKKEIQLVIKVFIA
- binding: binds
